Experimental data published in publication PMC3667844.
Results are given in words; binding and its absence hold for the method and conditions named. Some binding calls cover weakened binding; strength is not graded here.

Protein sequences, listed by entry. Tags and fused reporters are not part of them. Lines headed by an entry give the natural chain unless they say otherwise; changes in a name come on top.
UniProt P61019: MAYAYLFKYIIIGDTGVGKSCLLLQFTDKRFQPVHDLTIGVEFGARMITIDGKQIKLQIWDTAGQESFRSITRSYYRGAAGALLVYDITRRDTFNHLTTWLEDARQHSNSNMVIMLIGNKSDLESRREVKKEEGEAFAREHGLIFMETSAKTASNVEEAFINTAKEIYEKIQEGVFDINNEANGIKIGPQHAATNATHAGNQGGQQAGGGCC
UniProt Q9H082: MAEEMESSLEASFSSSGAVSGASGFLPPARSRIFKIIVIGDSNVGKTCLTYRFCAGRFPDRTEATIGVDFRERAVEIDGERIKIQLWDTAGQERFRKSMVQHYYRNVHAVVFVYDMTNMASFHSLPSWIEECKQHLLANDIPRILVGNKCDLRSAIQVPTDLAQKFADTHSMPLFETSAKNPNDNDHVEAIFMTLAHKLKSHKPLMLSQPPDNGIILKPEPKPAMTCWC
UniProt P62491: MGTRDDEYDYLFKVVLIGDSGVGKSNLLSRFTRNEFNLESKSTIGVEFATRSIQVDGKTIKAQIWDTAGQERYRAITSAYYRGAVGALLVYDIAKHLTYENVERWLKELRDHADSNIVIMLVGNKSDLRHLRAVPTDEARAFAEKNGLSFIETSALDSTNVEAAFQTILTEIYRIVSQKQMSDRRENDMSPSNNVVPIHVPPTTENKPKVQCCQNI
UniProt P01123: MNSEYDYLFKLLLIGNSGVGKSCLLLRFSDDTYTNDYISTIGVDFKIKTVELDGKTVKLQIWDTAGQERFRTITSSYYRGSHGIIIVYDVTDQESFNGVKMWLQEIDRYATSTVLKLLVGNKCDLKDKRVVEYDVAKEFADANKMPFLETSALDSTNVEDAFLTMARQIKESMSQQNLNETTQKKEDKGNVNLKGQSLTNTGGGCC
UniProt Q9H0U4: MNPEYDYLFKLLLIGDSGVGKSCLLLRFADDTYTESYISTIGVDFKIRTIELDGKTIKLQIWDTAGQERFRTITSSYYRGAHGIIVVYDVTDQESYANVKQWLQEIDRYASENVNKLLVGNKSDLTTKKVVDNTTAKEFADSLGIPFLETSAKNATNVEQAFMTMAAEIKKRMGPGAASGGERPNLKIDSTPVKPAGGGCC
UniProt P62820: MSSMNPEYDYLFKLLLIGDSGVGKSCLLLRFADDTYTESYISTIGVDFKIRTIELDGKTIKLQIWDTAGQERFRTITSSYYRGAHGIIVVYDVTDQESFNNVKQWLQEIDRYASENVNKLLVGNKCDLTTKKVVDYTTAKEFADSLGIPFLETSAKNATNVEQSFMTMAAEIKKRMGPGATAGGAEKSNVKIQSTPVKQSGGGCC
UniProt P61586: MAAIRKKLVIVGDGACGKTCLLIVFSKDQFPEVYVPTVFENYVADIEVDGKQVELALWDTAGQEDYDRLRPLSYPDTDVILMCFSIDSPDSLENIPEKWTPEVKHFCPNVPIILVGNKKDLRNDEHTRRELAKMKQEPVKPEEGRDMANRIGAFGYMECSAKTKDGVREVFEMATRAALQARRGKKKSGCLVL

What was measured:
pAS Rab2 Q65L = pAS Rab2 Q65L (UniProt P61019); assay: two-hybrid; Y190 co-transformed with prey (pP6 or pACT) and bait (pAS) plasmids; β-galactosidase reporter activity on replica filters with X-gal (β-gal)
pAS Rab33B Q92L = pAS Rab33B Q92L (UniProt Q9H082); assay: as above
pAS Rab11A wt = pAS Rab11A wt (UniProt P62491); assay: as above
pAS Ypt6p Q69L (yeast) = target: T1, pAS Ypt6p Q69L (yeast) (UniProt Q99260); assay: as above
T1 sequence: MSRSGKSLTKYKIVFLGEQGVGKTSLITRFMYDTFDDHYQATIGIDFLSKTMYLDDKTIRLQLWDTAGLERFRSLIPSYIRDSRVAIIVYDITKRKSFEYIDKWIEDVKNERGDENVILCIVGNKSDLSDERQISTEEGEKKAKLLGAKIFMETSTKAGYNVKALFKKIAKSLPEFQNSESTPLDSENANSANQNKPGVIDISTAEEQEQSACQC

pAS Rab6A Q72L = pAS Rab6A Q72L (UniProt P20340); assay: as above
pAS Rab33B wt = pAS Rab33B wt (UniProt Q9H082); assay: as above
pAS Rab6A' Q72L [1] = target: T2, pAS Rab6A' Q72L (UniProt P20340); assay: as above
T2 sequence: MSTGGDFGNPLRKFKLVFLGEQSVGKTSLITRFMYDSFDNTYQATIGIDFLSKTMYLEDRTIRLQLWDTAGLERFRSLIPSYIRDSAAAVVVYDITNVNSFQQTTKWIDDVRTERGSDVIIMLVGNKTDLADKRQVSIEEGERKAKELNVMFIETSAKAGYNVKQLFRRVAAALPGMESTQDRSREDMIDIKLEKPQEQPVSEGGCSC

pAS Ypt1 wt [2] = target: pAS Ypt1 wt (UniProt P01123); assay: as above
pAS Rab1B wt [3] = target: pAS Rab1B wt (UniProt Q9H0U4); assay: as above
pAS Rab2 wt [4] = target: pAS Rab2 wt (UniProt P61019); assay: as above
pAS Rab33B T47N = pAS Rab33B T47N (UniProt Q9H082); assay: as above
pAS Rab6B Q72L [5] = target: pAS Rab6B Q72L (UniProt Q9NRW1); assay: as above
pAS Rab1B Q67L = pAS Rab1B Q67L (UniProt Q9H0U4); assay: as above
pAS Rab1A wt = pAS Rab1A wt (UniProt P62820); assay: as above
pAS Ypt6p wt (yeast) = pAS Ypt6p wt (yeast) (UniProt Q99260); assay: as above
pAS RhoA wt = pAS RhoA wt (UniProt P61586); assay: as above
[6] = target: LexA Rab6B Q72L (pLex9), bait of the initial screen (UniProt Q9NRW1); assay: two-hybrid; library screen: LexA Rab6B Q72L (pLex9) as bait against a random-primed human placenta cDNA library in pP6; mating of Y187 and L40ΔGal4; selection without tryptophan, leucine and histidine with 5 mM 3-aminotriazole
pAS Rab6A' Q72L [7] = target: T2, pAS Rab6A' Q72L; assay: two-hybrid; Y190 co-transformed with prey (pP6 or pACT) and bait (pAS) plasmids; growth on synthetic medium lacking leucine, tryptophan and histidine with 30 mM 3 AT (his3)
pAS Ypt1 wt [8] = target: pAS Ypt1 wt (UniProt P01123); assay: as above
pAS Rab1B wt [9] = target: pAS Rab1B wt (UniProt Q9H0U4); assay: as above
pAS Rab2 wt [10] = target: pAS Rab2 wt (UniProt P61019); assay: as above
pAS Rab6B Q72L [11] = target: pAS Rab6B Q72L (UniProt Q9NRW1); assay: as above

B1: pP6 Mint1 (aa 438–769), yeast two-hybrid clone that lacks aa 495–505 (domain or fragment, UniProt Q02410-1)
chain: ASFPTYVEVPGPCDPEDLIDGIIFAANYLGSTQLLSDKTPSKNVRMMQAQEAVSRIKAPEGESQPMTEVDLFISTQRIKVLNADTQETMMDHPLRTISYIADIGNIVVLMARRRMPRSNSQENVEASHPSQDGKRQYKMICHVFESEDAQLIAQSIGQAFSVAYQEFLRANGINPEDLSQKEYSDLLNTQDMYNDDLIHFSKSENCKDVFIEKQKGEILGVVIVESGWGSILPTVIIANMMHGGPAEKSGKLNIGDQIMSINGTSLVGLPLSTCQSIIKGLKNQSRVKLNIVRCPPVTTVLIRRPDLRYQLGFSVQNGIIC
B1 was tested, and the binding (pAS Rab2 Q65L) was “no binding”, the binding (pAS Rab33B Q92L) was “no binding” and the binding (pAS Rab11A wt) was “no binding”. The binding (pAS Ypt6p Q69L (yeast)) was “no binding”, the binding (pAS Rab6A Q72L) was “binds” and the binding (pAS Rab33B wt) was “no binding”. The binding (pAS Rab6A' Q72L [1]) was “binds”, the binding (pAS Ypt1 wt [2]) was “no binding” and the binding (pAS Rab1B wt [3]) was “no binding”. For the same binder, the binding (pAS Rab2 wt [4]) was “no binding”, the binding (pAS Rab33B T47N) was “no binding” and the binding (pAS Rab6B Q72L [5]) was “binds”. The binding (pAS Rab1B Q67L) was “no binding”, the binding (pAS Rab1A wt) was “no binding” and the binding (pAS Ypt6p wt (yeast)) was “no binding”. For the same binder, the binding (pAS RhoA wt) was “no binding”, the binding [6] was “binds” and the binding (pAS Rab6A' Q72L [7]) was “binds”. The binding (pAS Ypt1 wt [8]) was “no binding”, the binding (pAS Rab1B wt [9]) was “no binding” and the binding (pAS Rab2 wt [10]) was “no binding”. The binding (pAS Rab6B Q72L [11]) was “binds”.
